# Laboratory results: patent US10280188B2, “Fluorine-containing bisphosphonic acid derivative and use thereof” (NAGASAKI UNIVERSITY, priority 2015, dated 2019)
# Some of these results come from one statement about several compounds together. At least one structure is not confirmed: it was looked up by name or label, or the drawing left a doubt.
# Tested on: adult T cell leukemia cell line HCT-5
# Assay: Specific cytotoxicity of Vδ2 positive γδ T cells on compound-treated HCT-5 (time-resolved fluorescence)
# Conditions: γδ T cells from adult T cell leukemia patients (4), E/T 1.25:1-80:1, single concentration tested
compound,measurement,value
"CC(C)(C)C(=O)OCOP(=O)(OCOC(=O)C(C)(C)C)C(F)(Cn1ccnc1)P(=O)(OCOC(=O)C(C)(C)C)OCOC(=O)C(C)(C)C [ZOLF-POM, tetrakispivaloyloxymethyl-1-fluoro-2-(1H-imidazoyl-1-ethylidene)-1,1-bisphosphonate]",concentration at which sensitivity to cytotoxicity activity of Vδ2 positive γδ T cells is promoted,at least 1 μM
